The list shows a part of the results.
These sequences were tested against T1, OsSMF1 (Oryza sativa, UniProt Q6ZLB0 1-436) (assay: protein-binding microarray (RPBM); PBS, 2% BSA, 51.3 ng/ul salmon testes DNA, 50 uM zinc acetate, 200 nM TF, 25 C, 1 h; high values mean tight binding). Conditions: protein: recombinant; tags: N-terminal polyhistidine and DsRed monomer fusion (pET32a); chain copies: 2; label: CyDye5-dUTP incorporated in the synthesized complementary strand; 3' TTTTT single-stranded linker to array surface; dsDNA, one strand shown.
T1 sequence: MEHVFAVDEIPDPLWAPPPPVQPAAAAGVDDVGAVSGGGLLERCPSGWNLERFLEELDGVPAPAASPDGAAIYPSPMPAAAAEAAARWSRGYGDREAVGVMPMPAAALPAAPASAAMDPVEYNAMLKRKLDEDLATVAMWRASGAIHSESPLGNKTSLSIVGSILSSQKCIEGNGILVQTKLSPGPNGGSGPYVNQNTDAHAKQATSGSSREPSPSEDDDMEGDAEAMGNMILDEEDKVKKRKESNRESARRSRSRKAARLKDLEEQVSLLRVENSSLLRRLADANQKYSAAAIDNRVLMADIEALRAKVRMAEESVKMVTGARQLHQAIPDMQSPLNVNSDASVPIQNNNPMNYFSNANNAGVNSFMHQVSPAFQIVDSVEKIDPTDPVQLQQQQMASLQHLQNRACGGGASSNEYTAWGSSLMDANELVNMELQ
Procedure, shortened: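 Per-feature fluorescence intensity (arbitrary units), read on an Axon 4000B scanner, is the binding signal. Transcription factors carrying an N-terminal polyhistidine tag and DsRed fusion were expressed in E. coli BL21-CodonPlus and purified on Ni–NTA. A custom Agilent array, made double-stranded by primer extension with Cy5-dUTP and blocked with 2% BSA, was incubated with 200 nM protein in PBS, 2% BSA, salmon testes DNA and 50 µM zinc acetate at 25 °C for 1 h and then washed.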

| Sequence | binding signal |
| --- | --- |
| GTTGGCGACGTTCCACGTCCATAGGCCCATTTAGGCCCATCGGAGTCACCTAGTGCAG | 4660 fluorescence intensity (a.u.) |
| CCGATGTGTCATAGGATCCACATGTCAGTGACAATGTCACCGGAGTCACCTAGTGCAG | 3760 fluorescence intensity (a.u.) |
| AAGTAATGACCACATCACCAGATCACCTCAGAGCTGGCTGCGGAGTCACCTAGTGCAG | 6330 fluorescence intensity (a.u.) |
| GTACATCCACGCACGCAGGGCGGTCTTGCGACACCACCGACGGAGTCACCTAGTGCAG | 3900 fluorescence intensity (a.u.) |
| TATTTTGGACATTTGGATTGAATATTTCTTTCCACTATGCCGGAGTCACCTAGTGCAG | 3590 fluorescence intensity (a.u.) |
| CCACTCTCCAGCGAGGCAGCGAATACGTATGCATCTGCTCCGGAGTCACCTAGTGCAG | 5340 fluorescence intensity (a.u.) |
| GCAGCCTAATAATAAAACTAATTACATGTATGAGAGCTAACGGAGTCACCTAGTGCAG | 28100 fluorescence intensity (a.u.) |
| CGCAGAAGATCTCCAATTGCCAGGTCAGCCTCCCACGGCCCGGAGTCACCTAGTGCAG | 16900 fluorescence intensity (a.u.) |
| GGAAGTCAGTGACGCGTCAGGCAGCAGACAACGTGGGTGTCGGAGTCACCTAGTGCAG | 10800 fluorescence intensity (a.u.) |
| CTTTTAATTTCCCTCGTGTCATGTATAGTAGTACTCCACCCGGAGTCACCTAGTGCAG | 4220 fluorescence intensity (a.u.) |
| TGAATAGTACTTTATGTGTATGTGTGACGTGACTATTTTCCGGAGTCACCTAGTGCAG | 6750 fluorescence intensity (a.u.) |
| CTCCAGCTTATTCAATCTTGTTCTGAACAAATGATCTCTCCGGAGTCACCTAGTGCAG | 3340 fluorescence intensity (a.u.) |
| ATCCGATTCCGGTTTTATCCTACGTGGCAGCTGAGTCAGCCGGAGTCACCTAGTGCAG | 30800 fluorescence intensity (a.u.) |
| GATGACAGGTGGGGCCCACATGTCAGTGGACCCCACAATTCGGAGTCACCTAGTGCAG | 26100 fluorescence intensity (a.u.) |
| TTTTATGTATTTGACCATAAAACGAGATTTGATGAAATTTCGGAGTCACCTAGTGCAG | 27200 fluorescence intensity (a.u.) |
| CAACCTGCCAAATATCATGTGTACATGCTGGCACGTCAATCGGAGTCACCTAGTGCAG | 4660 fluorescence intensity (a.u.) |
| AGTTGTTGTTTCATAGTTGAGTTTTGGTCGTGTCAACATTCGGAGTCACCTAGTGCAG | 3200 fluorescence intensity (a.u.) |
| AAAAGAAAAGAAATAAAGAATGAGTCGTCATCACCAGCAACGGAGTCACCTAGTGCAG | 3810 fluorescence intensity (a.u.) |
| GGATTTGTCCAATGATGATGATGAGTAAAATGAGTTGGCGCGGAGTCACCTAGTGCAG | 4930 fluorescence intensity (a.u.) |
| ACCGACGCGGACAGCCACAGTCCAGTCACACACCACACCACGGAGTCACCTAGTGCAG | 5320 fluorescence intensity (a.u.) |
| TGGCAAGGGGCGGCGGCGGCTGGTGAGGGGCGCCGGCCGCCGGAGTCACCTAGTGCAG | 16100 fluorescence intensity (a.u.) |

Taken from above:
binding signal, ATCCGATTCCGGTTTTATCCTACGTGGCAGCTGAGTCAGCCGGAGTCACCTAGTGCAG reads 30800 fluorescence intensity (a.u.)
binding signal, CAACCTGCCAAATATCATGTGTACATGCTGGCACGTCAATCGGAGTCACCTAGTGCAG reads 4660 fluorescence intensity (a.u.)
binding signal, GCAGCCTAATAATAAAACTAATTACATGTATGAGAGCTAACGGAGTCACCTAGTGCAG reads 28100 fluorescence intensity (a.u.)

Later entries:

| Sequence | binding signal |
| --- | --- |
| CCAGTATTGTTTGCATGATAAAATCTGTATACTCTACTATCGGAGTCACCTAGTGCAG | 3300 fluorescence intensity (a.u.) |
| CAGCAGAGGATCAAGCTGGCCAAGCTGCATCGTCACCATTCGGAGTCACCTAGTGCAG | 3960 fluorescence intensity (a.u.) |
| TACAATTCACCTAATTGGAAATATGCCATTACAATTCTGCCGGAGTCACCTAGTGCAG | 6760 fluorescence intensity (a.u.) |
| ACTTTTATTTGGGACACGTGTACATAACTCTTTCGGTCCGCGGAGTCACCTAGTGCAG | 22100 fluorescence intensity (a.u.) |
| TCTTTGGTGATGGATAATAACCCGATATAAACAATATAGACGGAGTCACCTAGTGCAG | 65000 fluorescence intensity (a.u.) |
| GCACGCGCGGCGCCCGCTGCCCGGCGGCGCACACGTCGCGCGGAGTCACCTAGTGCAG | 3510 fluorescence intensity (a.u.) |
| CGCATGACCATGCTACACATCTCATCGACCATCACCTCTCCGGAGTCACCTAGTGCAG | 3300 fluorescence intensity (a.u.) |
| ACGATGCCCTAGCTCACAATCTTTCTATATAAATACCCACCGGAGTCACCTAGTGCAG | 32800 fluorescence intensity (a.u.) |
| GCCGGTGATCCGCCGACGAGTCAGCGCCGCCTCACGCCGGCGGAGTCACCTAGTGCAG | 4600 fluorescence intensity (a.u.) |
| AGCAGCAACCAGCAGGGAGAAAGCAATCAGCAGCACTCCACGGAGTCACCTAGTGCAG | 3830 fluorescence intensity (a.u.) |
| TCCGGAGAGTTGACGCAGCGTCAACCGGGTCCGTCGTTCTCGGAGTCACCTAGTGCAG | 3800 fluorescence intensity (a.u.) |
| TCCCGCAAAGTTTCCCACACTACTACAAAACATCAAATAGCGGAGTCACCTAGTGCAG | 4470 fluorescence intensity (a.u.) |
| AGTAATGCCAGCTAACGACCATAAATGGCTCTCTGAAAGGCGGAGTCACCTAGTGCAG | 3840 fluorescence intensity (a.u.) |
| CCCCAAGATACCTGTGCGCGCGGCGCTGTGGCGTGACGCTCGGAGTCACCTAGTGCAG | 3300 fluorescence intensity (a.u.) |
| GTTGAGTTCGAAAACAATATAGATTGAGCATTCCAATATGCGGAGTCACCTAGTGCAG | 36400 fluorescence intensity (a.u.) |
| AATTTTATATACTAGAGGAGTTGAATCACCTAAGGTGAATCGGAGTCACCTAGTGCAG | 3590 fluorescence intensity (a.u.) |
| CTACTATACCTCCGTGCGTACCACATACTGTATGTAGACTCGGAGTCACCTAGTGCAG | 4130 fluorescence intensity (a.u.) |
| CTATCGCTATCCACTTCGTCCCCGCGTCGCGTGGCCCGAACGGAGTCACCTAGTGCAG | 4980 fluorescence intensity (a.u.) |
| GTGGACATGTTTAGCTTTGATGAATCATAAGCGATTGTGGCGGAGTCACCTAGTGCAG | 3910 fluorescence intensity (a.u.) |
| GTCTCTGACTCAGTCTGGATGATCGAAGTCAGCTCGTCACCGGAGTCACCTAGTGCAG | 6200 fluorescence intensity (a.u.) |
| TCGCCGGGCTTCTCTACGAGTACCTCGTCATCCCGTCCACCGGAGTCACCTAGTGCAG | 5700 fluorescence intensity (a.u.) |

— publication PMC7819943, “Rice protein-binding microarrays: a tool to detect cis-acting elements near promoter regions in rice”
